This is an account of results in PMC4793043.

Protein sequences, listed by entry. Tags and fused reporters are not part of them.
UniProt Q9UQL6: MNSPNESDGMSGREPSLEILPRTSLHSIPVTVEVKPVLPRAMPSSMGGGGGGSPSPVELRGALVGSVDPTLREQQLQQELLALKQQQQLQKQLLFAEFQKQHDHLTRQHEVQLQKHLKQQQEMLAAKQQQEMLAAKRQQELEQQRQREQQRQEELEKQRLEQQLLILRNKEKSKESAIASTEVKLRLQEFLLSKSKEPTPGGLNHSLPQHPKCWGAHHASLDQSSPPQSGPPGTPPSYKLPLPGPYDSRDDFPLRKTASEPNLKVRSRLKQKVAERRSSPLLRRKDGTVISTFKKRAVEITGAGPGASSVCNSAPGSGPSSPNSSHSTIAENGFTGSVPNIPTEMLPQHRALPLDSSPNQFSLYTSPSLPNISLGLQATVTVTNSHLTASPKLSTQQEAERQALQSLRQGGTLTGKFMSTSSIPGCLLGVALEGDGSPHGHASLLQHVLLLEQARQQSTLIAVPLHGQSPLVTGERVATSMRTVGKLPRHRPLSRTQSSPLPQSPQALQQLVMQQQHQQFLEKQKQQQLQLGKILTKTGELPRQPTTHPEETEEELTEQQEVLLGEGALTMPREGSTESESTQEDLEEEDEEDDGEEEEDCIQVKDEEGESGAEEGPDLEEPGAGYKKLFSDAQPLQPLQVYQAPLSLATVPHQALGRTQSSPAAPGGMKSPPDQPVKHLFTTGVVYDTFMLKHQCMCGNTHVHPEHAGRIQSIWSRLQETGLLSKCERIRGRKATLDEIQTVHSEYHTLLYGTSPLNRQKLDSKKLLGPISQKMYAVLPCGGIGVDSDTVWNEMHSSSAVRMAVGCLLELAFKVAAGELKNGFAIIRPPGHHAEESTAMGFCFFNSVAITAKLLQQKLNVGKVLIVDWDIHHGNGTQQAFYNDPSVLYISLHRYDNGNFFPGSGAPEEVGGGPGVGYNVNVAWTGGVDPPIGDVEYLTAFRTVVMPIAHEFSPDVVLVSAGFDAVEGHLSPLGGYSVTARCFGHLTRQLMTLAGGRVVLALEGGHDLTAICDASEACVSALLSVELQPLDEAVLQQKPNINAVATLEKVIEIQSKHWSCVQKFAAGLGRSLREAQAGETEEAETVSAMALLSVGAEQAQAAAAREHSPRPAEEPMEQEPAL
UniProt P17844: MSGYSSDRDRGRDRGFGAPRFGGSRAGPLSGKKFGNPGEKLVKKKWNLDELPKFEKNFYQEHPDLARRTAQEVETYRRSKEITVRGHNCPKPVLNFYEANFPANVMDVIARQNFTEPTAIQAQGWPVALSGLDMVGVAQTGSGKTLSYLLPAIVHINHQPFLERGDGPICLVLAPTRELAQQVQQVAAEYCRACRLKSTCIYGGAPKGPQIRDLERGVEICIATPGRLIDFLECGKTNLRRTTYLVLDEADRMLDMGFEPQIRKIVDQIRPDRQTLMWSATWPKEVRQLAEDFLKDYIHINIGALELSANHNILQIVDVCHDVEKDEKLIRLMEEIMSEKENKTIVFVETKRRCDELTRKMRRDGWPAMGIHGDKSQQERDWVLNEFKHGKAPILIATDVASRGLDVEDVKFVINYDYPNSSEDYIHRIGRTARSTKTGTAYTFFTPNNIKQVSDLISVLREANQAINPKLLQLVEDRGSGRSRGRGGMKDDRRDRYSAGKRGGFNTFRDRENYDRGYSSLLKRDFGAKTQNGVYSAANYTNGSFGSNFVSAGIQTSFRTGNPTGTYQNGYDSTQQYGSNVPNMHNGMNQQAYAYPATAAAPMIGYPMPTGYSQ

Results are given in words; binding and its absence hold for the method and conditions named. Binding seen in cells or lysates may run through a third protein. Some entries that bind do so weakly or less than the wild type. For part of these data: Tags and fused reporters may be left off the sequences shown.

Assay [1] concerns the target T1, Flag-Drosha (UniProt Q9NRR4).
T1 sequence: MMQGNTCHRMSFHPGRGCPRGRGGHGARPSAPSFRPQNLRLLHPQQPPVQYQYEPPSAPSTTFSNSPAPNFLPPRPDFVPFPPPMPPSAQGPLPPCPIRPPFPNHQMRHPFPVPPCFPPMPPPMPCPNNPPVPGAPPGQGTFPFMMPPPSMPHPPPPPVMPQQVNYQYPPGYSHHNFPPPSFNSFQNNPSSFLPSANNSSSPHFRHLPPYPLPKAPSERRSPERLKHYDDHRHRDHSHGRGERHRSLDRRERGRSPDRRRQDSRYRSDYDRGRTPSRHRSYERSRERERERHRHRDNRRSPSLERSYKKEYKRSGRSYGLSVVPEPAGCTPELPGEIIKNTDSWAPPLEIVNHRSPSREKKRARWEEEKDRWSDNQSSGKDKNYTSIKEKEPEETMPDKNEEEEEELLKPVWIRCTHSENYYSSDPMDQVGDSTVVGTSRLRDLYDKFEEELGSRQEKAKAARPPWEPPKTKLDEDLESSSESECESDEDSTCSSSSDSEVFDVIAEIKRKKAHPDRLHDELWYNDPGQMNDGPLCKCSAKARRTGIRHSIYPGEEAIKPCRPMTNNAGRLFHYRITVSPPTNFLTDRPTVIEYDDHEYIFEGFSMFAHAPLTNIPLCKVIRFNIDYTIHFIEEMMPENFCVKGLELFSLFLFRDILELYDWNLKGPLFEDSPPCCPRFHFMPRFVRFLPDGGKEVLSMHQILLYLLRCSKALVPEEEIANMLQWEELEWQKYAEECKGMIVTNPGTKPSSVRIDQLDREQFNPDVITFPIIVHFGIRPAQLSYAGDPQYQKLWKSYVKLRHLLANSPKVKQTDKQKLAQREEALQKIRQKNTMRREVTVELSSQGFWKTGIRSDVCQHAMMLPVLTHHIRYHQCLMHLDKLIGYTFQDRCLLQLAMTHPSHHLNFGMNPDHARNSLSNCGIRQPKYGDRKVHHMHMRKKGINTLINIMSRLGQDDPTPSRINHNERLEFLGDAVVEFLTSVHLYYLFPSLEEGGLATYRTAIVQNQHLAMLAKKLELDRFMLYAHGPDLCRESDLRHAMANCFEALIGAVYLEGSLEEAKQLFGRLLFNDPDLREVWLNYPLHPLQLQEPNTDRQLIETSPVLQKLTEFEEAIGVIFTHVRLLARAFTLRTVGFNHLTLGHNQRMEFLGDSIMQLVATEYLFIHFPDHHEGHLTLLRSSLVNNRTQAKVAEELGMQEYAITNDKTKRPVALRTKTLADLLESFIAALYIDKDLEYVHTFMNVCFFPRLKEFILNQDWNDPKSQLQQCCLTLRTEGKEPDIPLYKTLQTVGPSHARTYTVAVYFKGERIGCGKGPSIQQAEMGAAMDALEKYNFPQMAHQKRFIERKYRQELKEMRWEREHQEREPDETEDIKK
Kind of assay: co-IP; lysates of HEK293T cells co-transfected with Flag-Drosha or Flag-DGCR8 and HA-TLX (full length or deletion mutants), with or without DNase and RNase; IP with anti-Flag antibody, blot with anti-HA antibody.

Assay [2] concerns the target T1, Flag-Drosha. Kind of assay: co-IP; HEK293T cells co-transfected with Dpi peptide, control peptide or empty vector together with HA-TLX and Flag-Drosha or Flag-HDAC5; IP with anti-Flag antibody, blot with anti-HA or anti-Flag antibody.
The target in another assay is Flag-HDAC5 (UniProt Q9UQL6). The assay is described as above.
The next assay concerns the target T2, Flag-DGCR8 (UniProt Q8WYQ5).
T2 sequence: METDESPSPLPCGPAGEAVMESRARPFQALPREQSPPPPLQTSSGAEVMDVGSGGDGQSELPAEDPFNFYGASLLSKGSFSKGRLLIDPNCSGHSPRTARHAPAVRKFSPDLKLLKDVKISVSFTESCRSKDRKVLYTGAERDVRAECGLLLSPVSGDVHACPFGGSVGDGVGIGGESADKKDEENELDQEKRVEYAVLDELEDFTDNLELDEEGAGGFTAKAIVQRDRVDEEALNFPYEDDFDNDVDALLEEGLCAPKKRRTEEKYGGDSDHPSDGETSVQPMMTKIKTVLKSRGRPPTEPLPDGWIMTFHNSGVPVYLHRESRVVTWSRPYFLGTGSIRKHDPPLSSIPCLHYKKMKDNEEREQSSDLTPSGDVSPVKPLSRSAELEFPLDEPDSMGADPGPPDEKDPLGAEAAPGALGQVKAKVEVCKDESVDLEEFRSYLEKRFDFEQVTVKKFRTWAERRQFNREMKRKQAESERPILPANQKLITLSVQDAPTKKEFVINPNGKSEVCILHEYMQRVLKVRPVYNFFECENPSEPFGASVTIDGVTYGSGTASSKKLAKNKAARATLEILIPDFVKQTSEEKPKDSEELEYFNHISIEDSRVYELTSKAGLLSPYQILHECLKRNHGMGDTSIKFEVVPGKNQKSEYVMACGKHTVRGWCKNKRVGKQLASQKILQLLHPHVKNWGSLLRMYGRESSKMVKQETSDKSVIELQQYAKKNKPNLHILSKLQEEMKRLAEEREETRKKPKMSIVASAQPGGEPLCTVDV
Kind of assay: co-IP; lysates of HEK293T cells co-transfected with Flag-Drosha or Flag-DGCR8 and HA-TLX (full length or deletion mutants), with or without DNase and RNase; IP with anti-Flag antibody, blot with anti-HA antibody.

Assay [3] addresses HA-tagged full-length TLX (residues 1-385) (UniProt Q64104). Kind of assay: co-IP; lysates of HEK293T cells transfected with HA-TLX (full length or deletion mutants), with or without DNase and RNase; IP with HA antibody, blot with p68 antibody; lysis buffer 50 mM Tris-HCl pH 7.8, 150 mM NaCl, 1% NP-40, 0.1% deoxycholate.
Assay [4] has as its target HA-tagged TLX deletion mutant, residues 1-359 (UniProt Q64104). The assay is described as above.
The target in assay [5] is endogenous TLX (E13.5 mouse brain) (mouse (endogenous in E13.5 mouse brain)) (UniProt Q64104). Nature of the assay: co-IP; endogenous proteins; lysates of E13.5 mouse brains immunoprecipitated with TLX antibody, blotted with anti-Drosha, anti-DGCR8 or anti-TLX antibody.

Take “HA-tagged TLX deletion mutant, residues 1-359 (from UniProt Q64104 1-359) (domain or fragment)”: the binding entry with Flag-Drosha [1] is listed as “binds”.

For the molecule “HA-tagged full-length TLX (residues 1-385) (from UniProt Q64104 1-385)”, the binding result with Flag-Drosha [2], with Flag-HDAC5, with Flag-Drosha [1] and with Flag-DGCR8 was “binds” each time.

In the case of “RNA helicase p68 (DDX5), endogenous in HEK293T (from UniProt P17844 1-614)”, the binding result in assay [3] and in assay [4] was “binds” each time.

B1: endogenous DGCR8 (E13.5 mouse brain) (protein, UniProt Q9EQM6 1-773)
chain: METYESPSPLPREPAGEAMMENRACPFQVLPHEQSPPPPLQTSSDAEVMDVGSGGDGQSEPPADDPFNFYGASLLSKGSFSKGRLLIDPNCSGHSPRTARHAPAVRKFSPDLKLLKDVKISVSFTESCRSKDRKVLYTGVERSTRPECGQLLSPVSGDVHACPFGGSVGNGVGLGGESADKKDEENELDQEKRVEYAVLDELEDFTDNLELDEEGTGGFTAKAIVQRDRVDEEALNFSYEDDFDNDVDALLEEGLCAPKKRRMEEKYGGDSDHPSDGETSVQPMMTKIKTVLKSRGRPPTEPLPDGWIMTFHNSGVPVYLHRESRVVTWSRPYFLGTGSIRKHDPPLSSIPCLHYKKMKDNEEREQNCDLAPSGEVSPVKPLGRSAELDFPLEEPDSMGGDSGSMDEKDPLGAEAAAGALGQVKAKVEVCKDESVDLEEFRNYLEKRFDFEQVTVKKFRTWAERRQFNREMKRKQAESERPILPANQKLITLSVQDAPTKKEFVINPNGKSEVCILHEYMQRVLKVRPVYNFFECENPSEPFGASVTIDGVTYGSGTASSKKLAKNKAARATLEILIPDFVKQTSEEKPKDSEELEYFNHISIEDSRVYELTSKAGLLSPYQILHECLKRNHGMGDTSIKFEVVPGKNQKSEYVMACGKHTVRGWCKNKRVGKQLASQKILQLLHPHVKNWGSLLRMYGRESSKMVKQETSDKSVIELQQYAKKNRPNLHILSKLQEEMKRLAAEREETRKKPKMSIVASAQPGGEPLCTVDV
B1: in assay [5], the binding entry was “binds”.

B2: endogenous Drosha (E13.5 mouse brain) (enzyme, UniProt Q5HZJ0 1-1373)
chain: MQGNTCHRMSYHPGRGCPRGRGGHGARPSAPAFRPQNLRLLHPQQPPAQYQYEPPSAPSSSYSNSQAPSFMPPRPDFVPYPPPAAPSAQGPLPPCPVRPPYPNHQMRHPFPVPPCFPPMPPPMPCPNNPPASGAPPGQGTFPFMVPPPSMPHPPPPPVMPQQVNYQYPPGYSHSFPPPGFNSYQNNSSSFPPSANSSSTPHFRHLPPYSLPKAQNERRSPERLKHYDDHRHRDHSHGRGERHRSLERRERGRSPERRRPESRYRSDYDRGRTPPPRHRSYERSRERDRERHRHREARRSPSLERSYKKEYKRSGRSYALPVAPEPAGCTPELPGEMIKTTESWAPPPENVNHRSPSREKKRARWEEEKDRWSDSQGSGKEKNYTSIKEKEAEEVPPEKTEEEEEELLKPVWIRCTHSESYYSSDPMDQVGDSTVVGTSRLRDLYDKFEEELGNRQEKAKAARPPWEPPKTKLDEDLESSSESECETDDDSTCSSSSDSEVFDVIAEIKRKKAHPDRLHDELWYNDPGQMNDGPLCKCSAKARRTGIRHSIYPGEEAIKPCRPMTNNAGRLFHYRITVSPPTNFLTDRPTVIEYDDHEYIFEGFSMFAHAPLTNIPLCKVIRFNIDYTIHFIEEMMPENFCVKGLELFSLFLFRDILELYDWNLKGPLFEDSPPCCPRFHFMPRFVRFLPDGGKEVLSMHQILLYLLRCSKALVPEEEIANMLQWEELEWQKYAEECKGMIVTNPGTKPSSVRIDQLDREQFNPEVITFPIIVHFGIRPAQLSYAGDPQYQKLWKSYVKLRHLLANSPKVKQTDKQKLAQREEALQKIRQKNTMRREVTVELSSQGFWKTGIRSDVCQHAMMLPVLTHHIRYHQCLMHLDKLIGYTFQDRCLLQLAMTHPSHHLNFGMNPDHARNSLSNCGIRQPKYGDRKVHHMHMRKKGINTLINIMSRLGQDDPTPSRINHNERLEFLGDAVVEFLTSVHLYYLFPSLEEGGLATYRTAIVQNQHLAMLAKKLELDRFMLYAHGPDLCRESDLRHAMANCFEALIGAVYLEGSLEEAKQLFGRLLFNDPDLREVWLNYPLHPLQLQEPNTDRQLIETSPVLQKLTEFEEAIGVIFTHVRLLARAFTLRTVGFNHLTLGHNQRMEFLGDSIMQLVATEYLFIHFPDHHEGHLTLLRSSLVNNRTQAKVAEELGMQEYAITNDKTKRPVALRTKTLADLLESFIAALYIDKDLEYVHTFMNVCFFPRLKEFILNQDWNDPKSQLQQCCLTLRTEGKEPDIPLYKTLQTVGPSHARTYTVAVYFKGERIGCGKGPSIQQAEMGAAMDALEKYNFPQMAHQKRFIERKYRQELKEMRWEREHQEREPEEAEDIKK
In the case of B2, the binding entry in assay [5] is “binds”.
